The values that follow come from paper PMC13091039.

Amino acid sequences for entries named in this document (tags omitted). A change or cut given only in a name is not applied to a line headed by its entry.
UniProt P25116: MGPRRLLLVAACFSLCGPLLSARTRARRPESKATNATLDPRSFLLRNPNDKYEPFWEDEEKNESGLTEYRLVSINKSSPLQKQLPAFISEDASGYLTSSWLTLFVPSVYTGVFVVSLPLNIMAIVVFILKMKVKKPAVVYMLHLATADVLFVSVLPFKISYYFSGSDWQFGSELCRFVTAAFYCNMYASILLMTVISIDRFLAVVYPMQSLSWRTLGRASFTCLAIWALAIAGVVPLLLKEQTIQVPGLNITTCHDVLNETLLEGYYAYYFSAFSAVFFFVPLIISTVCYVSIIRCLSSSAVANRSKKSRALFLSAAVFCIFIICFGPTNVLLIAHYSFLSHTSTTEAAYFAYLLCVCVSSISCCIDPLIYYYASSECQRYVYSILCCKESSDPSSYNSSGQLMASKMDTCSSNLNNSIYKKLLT

In experiment [1] the target is thrombin-activated PAR1 0P mutant fused to YFP (human) (UniProt P25116). The experiment is described as follows: FRET or BRET; HEK293 GRK2,3,5,6 KO cells re-expressing GRK5 WT, with PAR1-YFP (WT or mutant), EPCR-Halo and Rluc-βarr2; 1 nM thrombin or 20 nM APC, 37°C. In general terms: BRET reads energy transfer from a luciferase to a nearby fluorophore.
Experiment [2] concerns the target thrombin-activated PAR1 dP2 (proximal phospho-site) mutant fused to YFP (human) (UniProt P25116). The experiment is described as above.
Experiment [3] has the same target. The experiment is described as follows: FRET or BRET; HEK293 parental cells expressing PAR1-YFP (WT or mutant), Rluc-βarr2 and EPCR(-Halo) (thrombin also without EPCR); 5 μM coelenterazine H, then 1 nM thrombin or 20 nM APC; BRET (530/480 nm) over time at 37°C, percent over basal.

These are yes or no findings as the source states them, for the method shown. Binding seen in cells or lysates may run through a third protein. For part of these data: Binding can be weak; no strength is given.

With “Renilla luciferase (Rluc)-tagged β-arrestin-2 (from UniProt P32121 1-409)”, the figures for the binding result in experiment [1], in experiment [2] and in experiment [3] were “no binding”, “binds” and “binds”, respectively.
